The test concerns the target hSI receptor domain (human sucrase-isomaltase complex, amino acid residues 272-667), His-tag fusion protein (human) (UniProt P14410). The experiment in a line: phage panning and ELISA on hSI domain; listed under hSI in Table 7. (An ELISA detects its analyte on a solid surface through an enzyme-linked reagent.)

Sequences of proteins named here, by UniProt entry; tags and fusion partners are left off. A change or cut given only in a name is not applied to a line headed by its entry.
UniProt P14410: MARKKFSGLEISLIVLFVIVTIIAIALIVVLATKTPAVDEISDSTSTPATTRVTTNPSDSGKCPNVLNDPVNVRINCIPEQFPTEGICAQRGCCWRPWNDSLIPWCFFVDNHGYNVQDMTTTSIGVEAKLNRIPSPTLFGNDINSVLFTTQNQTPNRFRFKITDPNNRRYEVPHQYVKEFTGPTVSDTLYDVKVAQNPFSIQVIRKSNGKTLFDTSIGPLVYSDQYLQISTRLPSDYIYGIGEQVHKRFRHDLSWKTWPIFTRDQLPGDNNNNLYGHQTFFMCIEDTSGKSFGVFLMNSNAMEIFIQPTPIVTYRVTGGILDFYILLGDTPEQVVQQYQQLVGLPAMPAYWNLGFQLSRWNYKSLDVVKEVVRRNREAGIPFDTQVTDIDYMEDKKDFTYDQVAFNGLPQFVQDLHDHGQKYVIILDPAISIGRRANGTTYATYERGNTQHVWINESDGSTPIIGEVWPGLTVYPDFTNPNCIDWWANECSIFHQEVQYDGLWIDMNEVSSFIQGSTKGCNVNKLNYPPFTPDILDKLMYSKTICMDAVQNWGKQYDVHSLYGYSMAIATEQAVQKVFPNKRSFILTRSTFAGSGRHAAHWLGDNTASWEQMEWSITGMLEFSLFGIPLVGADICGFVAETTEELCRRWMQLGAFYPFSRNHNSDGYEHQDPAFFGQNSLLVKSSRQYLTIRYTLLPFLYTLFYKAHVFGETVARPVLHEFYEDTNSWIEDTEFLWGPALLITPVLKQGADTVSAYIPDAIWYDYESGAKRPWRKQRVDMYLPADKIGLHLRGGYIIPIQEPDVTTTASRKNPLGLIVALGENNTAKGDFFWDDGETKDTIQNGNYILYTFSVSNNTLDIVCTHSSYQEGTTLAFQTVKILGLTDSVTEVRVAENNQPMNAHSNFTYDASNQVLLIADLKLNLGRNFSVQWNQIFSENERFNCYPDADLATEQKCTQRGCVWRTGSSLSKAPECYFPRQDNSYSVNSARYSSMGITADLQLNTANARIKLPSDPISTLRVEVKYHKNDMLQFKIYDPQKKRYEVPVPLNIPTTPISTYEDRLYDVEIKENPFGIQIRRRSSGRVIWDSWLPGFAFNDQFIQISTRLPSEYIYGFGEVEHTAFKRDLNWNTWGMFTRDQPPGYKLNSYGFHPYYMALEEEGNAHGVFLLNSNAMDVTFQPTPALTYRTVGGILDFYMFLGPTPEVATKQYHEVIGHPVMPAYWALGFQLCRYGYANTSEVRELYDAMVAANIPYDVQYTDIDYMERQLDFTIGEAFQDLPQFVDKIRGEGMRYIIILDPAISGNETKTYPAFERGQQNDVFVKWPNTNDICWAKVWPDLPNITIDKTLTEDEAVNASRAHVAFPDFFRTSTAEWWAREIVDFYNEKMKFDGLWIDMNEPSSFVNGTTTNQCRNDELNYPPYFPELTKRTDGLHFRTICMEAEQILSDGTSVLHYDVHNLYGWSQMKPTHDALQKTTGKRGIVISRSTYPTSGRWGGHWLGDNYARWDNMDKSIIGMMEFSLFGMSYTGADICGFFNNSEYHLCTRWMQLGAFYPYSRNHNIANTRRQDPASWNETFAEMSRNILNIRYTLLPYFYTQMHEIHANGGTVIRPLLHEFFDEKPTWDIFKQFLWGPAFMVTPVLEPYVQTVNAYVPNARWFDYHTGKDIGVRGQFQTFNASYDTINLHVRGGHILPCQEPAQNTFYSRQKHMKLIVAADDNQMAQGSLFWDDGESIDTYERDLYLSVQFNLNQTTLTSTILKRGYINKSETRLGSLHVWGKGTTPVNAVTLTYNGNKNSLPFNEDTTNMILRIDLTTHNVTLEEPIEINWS
UniProt P69168: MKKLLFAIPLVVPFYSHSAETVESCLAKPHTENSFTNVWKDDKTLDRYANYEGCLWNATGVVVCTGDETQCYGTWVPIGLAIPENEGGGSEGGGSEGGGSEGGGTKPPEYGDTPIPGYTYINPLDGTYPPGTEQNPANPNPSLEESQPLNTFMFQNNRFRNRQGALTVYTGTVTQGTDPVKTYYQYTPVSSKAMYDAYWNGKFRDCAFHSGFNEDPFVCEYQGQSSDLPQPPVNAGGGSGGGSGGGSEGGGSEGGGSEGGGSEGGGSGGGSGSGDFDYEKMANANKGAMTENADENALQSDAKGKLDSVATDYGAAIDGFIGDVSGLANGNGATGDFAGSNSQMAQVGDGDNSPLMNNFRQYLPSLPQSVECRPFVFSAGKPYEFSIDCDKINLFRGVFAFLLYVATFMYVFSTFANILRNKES

These are yes or no findings as the source states them, for the method shown. Some results given as binding are weak or reduced against the parent protein; the word gives no strength.

“SNiAX4 (from UniProt P69168 19-424) (peptide)”: the binding entry was “binds”.
